# Data published in PubChem BioAssay AID1671190 (National Center for Advancing Translational Sciences (NCATS), 2021).
# By UniProt entry, the sequences of proteins in these tests, tags left out. Where a name states a change or a piece, a line headed by the entry shows the natural chain unless it says otherwise.
# UniProt P18054: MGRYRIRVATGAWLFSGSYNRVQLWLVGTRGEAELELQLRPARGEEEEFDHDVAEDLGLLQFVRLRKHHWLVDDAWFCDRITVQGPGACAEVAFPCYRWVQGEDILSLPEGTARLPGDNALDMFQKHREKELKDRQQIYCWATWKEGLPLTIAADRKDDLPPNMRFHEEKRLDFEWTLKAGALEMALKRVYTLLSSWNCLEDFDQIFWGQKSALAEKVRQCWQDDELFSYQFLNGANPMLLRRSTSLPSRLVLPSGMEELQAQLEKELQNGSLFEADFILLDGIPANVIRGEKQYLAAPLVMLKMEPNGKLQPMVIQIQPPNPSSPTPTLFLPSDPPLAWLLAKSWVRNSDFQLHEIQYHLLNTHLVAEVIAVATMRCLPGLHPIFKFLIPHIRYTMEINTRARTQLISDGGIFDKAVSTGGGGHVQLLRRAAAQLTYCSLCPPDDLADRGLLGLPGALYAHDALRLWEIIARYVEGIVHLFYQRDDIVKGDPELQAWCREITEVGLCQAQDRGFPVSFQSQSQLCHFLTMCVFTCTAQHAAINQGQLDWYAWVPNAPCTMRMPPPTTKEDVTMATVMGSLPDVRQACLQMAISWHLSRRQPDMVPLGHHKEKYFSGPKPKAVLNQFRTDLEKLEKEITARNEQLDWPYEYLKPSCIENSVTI
# Values joined by “and” are separate entries in the source; they are usually repeats but may differ in a detail not shown here. Equal entries are not always repeated. The whole screen tested about 580,000 compounds, of which about 6,100 (1.1%) were called active. Inconclusive means that the source gave no clear call. Such entries were picked first, then a sample of the others. The call rests on the fitted dose curve; in most records, active means well fitted inhibition curve with a large enough effect; inconclusive means small, poorly fitted or top-dose-only effect, or another doubt; inactive means no such curve, though single readings can be large or run the other way. Potencies beside an inconclusive call are fits to weak or partial responses and may not hold up.
# Biological target: Polyunsaturated fatty acid lipoxygenase ALOX12 (Homo sapiens) (UniProt P18054)
# Assay: Primary qHTS assay for inhibitors of human arachidonate 12S-lipoxygenase (ALOX12): Round 2
# Conditions: purified 12hLO, xylenol orange hydroperoxide absorbance; activity change, negative = inhibition: at 108 µM (top of the series) unless noted
# Procedure, shortened: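 Purified human 12hLO at 150 nM in 25 mM Hepes, 0.01% Triton X-100, pH 7.0, preincubated 15 min at room temperature with compound. Reaction started with 40 uM arachidonic acid, 30 min at room temperature. Hydroperoxide measured by Fe-xylenol orange, 573/405 nm absorbance ratio.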
# On the % scale 0 is the no-effect control and ±100 the full control effect; potency means the concentration at half of the fitted maximal effect.
SMILES,"activity change, negative = inhibition",Potency
O=C1CO[C@H]2CN(Cc3cccnc3)C[C@H]2N1Cc1cccc(C(F)(F)F)c1,inactive: 8.52% [at 176 µM],
Cc1ccc(S(=O)(=O)Nc2nc(C)c(C)s2)cc1,,"inconclusive: 44.7 µM [inhibitor, partial curve, poor fit]"
COC(=O)c1ccc(N=Nc2c(C)[nH]n(-c3ccccc3)c2=O)cc1,,"inconclusive: 44.7 µM [inhibitor, partial curve, poor fit]"
COC(=O)C1(C(C[N+](=O)[O-])c2ccco2)C(=O)NCC1c1ccccc1 (configuration not stated),,"inconclusive: 158 µM [inhibitor, single point]"
C=CCSc1ncccc1C(=O)NCCc1ccccc1,,"inconclusive: 35.5 µM [inhibitor, single point]"
Cc1ccc(C(=O)NC(Cc2cccc(F)c2)C(=O)O)cc1 (configuration not stated),,"inconclusive: 35.5 µM [inhibitor, full curve, poor fit]"
O=S(=O)(C/C=C/c1ccccc1)Cc1cccc(F)c1,,"inconclusive: 20 µM [inhibitor, partial curve]"
CN1CCC2(C1)CN(Cc1ccccc1)c1ccc(C(=O)Nc3ccc(F)cc3)cc12 (configuration not stated),,"inconclusive: 35.5 µM [inhibitor, partial curve, poor fit]"
CCOc1ccc(CNC(=O)C2CCCCN2S(=O)(=O)c2ccc(F)cc2)cc1OC (configuration not stated),inactive: -21.2%,
CNC(=S)N/N=C/c1ccco1,,"inconclusive: 2.51 µM [inhibitor, partial curve, poor fit]"
COC(=O)[C@@H]1Cc2ncn(C)c2CN1S(=O)(=O)c1ccc(Cl)cc1,,"inconclusive: 50.1 µM [inhibitor, full curve]"
O=C(Nc1nc2cc3c(cc2s1)OCCO3)C1=COCCO1,,"inconclusive: 100 µM [inhibitor, single point]"
O=C(O)c1cc(-c2ccc(Cl)cc2)n(-c2ccccc2)n1,,"inconclusive: 100 µM [inhibitor, single point]"
CC1CCc2cc(F)ccc2N1C(=O)CN1C(=O)c2ccccc2C1=O (configuration not stated),inactive: 0%,
Cc1ccccc1NC(=O)c1c(C)oc2ccc(O)c(CN3CCOCC3)c12,inconclusive: -48.4% [inhibitor],
O=C(Nc1ccccn1)c1cc(-c2cccs2)nc2ccccc12,,"inconclusive: 56.2 µM [inhibitor, partial curve, poor fit]"
Cc1ccc(NC(=S)NNC(=O)c2cn(C)nc2C)cc1,,"inconclusive: 39.8 µM [inhibitor, partial curve, poor fit]"
COc1cc(OC)cc(C(=O)NCCCCNC(=O)c2cc(OC)cc(OC)c2)c1,,"inconclusive: 112 µM [inhibitor, single point]"
CCOC(=O)C1=CN(Cc2ccc(Cl)cc2)C=C(C(=O)OCC)C1c1cccc(O)c1,,"inconclusive: 39.8 µM [inhibitor, partial curve, poor fit]"
CCCCc1nnc(SCCSc2nnc(CCCC)n2N)n1N,inactive: 0%,
COCCn1c(SCc2nc3cc(OC)c(OC)cc3c(=O)[nH]2)nnc1-c1ccncc1,,"inconclusive: 28.2 µM [inhibitor, single point]"

# 2 entries drawn at random from the list so far, as already listed:
SMILES,"activity change, negative = inhibition",Potency
O=C1CO[C@H]2CN(Cc3cccnc3)C[C@H]2N1Cc1cccc(C(F)(F)F)c1,inactive: 8.52% [at 176 µM],
Cc1ccc(NC(=S)NNC(=O)c2cn(C)nc2C)cc1,,"inconclusive: 39.8 µM [inhibitor, partial curve, poor fit]"

# Further entries follow.

SMILES,"activity change, negative = inhibition",Potency
O=C(NC12CC3CC(CC(C3)C1)C2)C1CCCCC1,,"inconclusive: 79.4 µM [inhibitor, single point]"
C=C(C)CN(Cc1ccccc1)C(=S)Nc1ccccc1,inactive: -15.7%,
O=C(O)c1cc(-c2ccco2)nc2cc(Br)ccc12,,"inconclusive: 14.1 µM [inhibitor, full curve, poor fit]"
Fc1ccc(C(c2ccc(F)cc2)N2CCN(C/C=C\c3ccccc3)CC2)cc1,,"inconclusive: 35.5 µM [inhibitor, single point]"
CCc1ccc2[nH]c(=O)c(C(c3nnnn3CCOC)N3CCN(c4ccc(F)cc4)CC3)cc2c1 (configuration not stated),,"inconclusive: 4.47 µM [inhibitor, partial curve, poor fit]"
O=C1NN(c2cccc(Br)c2)C(=O)/C1=C\c1ccc(O)cc1,,active: 15.8 µM
Cc1cc(SCC(=O)N/N=C/c2ccc(O)c(O)c2O)c(C)cc1Br,,"inconclusive: 7.94 µM [inhibitor, full curve, poor fit]"
CCN1C(=O)C2CC3(CCN(C(=O)C4CCCCC4)CC3)CN2C1=O (configuration not stated),inactive: 13.6%,
NS(=O)(=O)c1ccc(N/N=C/c2ccc(Cl)cc2)c([N+](=O)[O-])c1,inactive: -2.32%,
Cc1ccc(-c2noc(-c3cc4cccc(O)c4oc3=O)n2)cc1,,"inconclusive: 50.1 µM [inhibitor, partial curve, poor fit]"
Clc1ccc2nc(C3CCCCC3)c(CC3CCCCC3)n2c1,,"inconclusive: 100 µM [inhibitor, single point]"
Cc1sc2ncnc(SCC(=O)c3ccc(O)cc3O)c2c1C,inactive: -19.7%,
N#Cc1cccc(OCc2cccc3cccnc23)c1,,"inconclusive: 3.16 µM [inhibitor, full curve, poor fit]"
Cc1cccc(NCc2ccc(O)c3ncccc23)c1,,"inconclusive: 17.8 µM [inhibitor, full curve, poor fit]"
Cc1cccc(C)c1NC(=S)NC1CCCCC1,,"inconclusive: 44.7 µM [inhibitor, partial curve, poor fit]"
NS(=O)(=O)c1ccc(Nc2nc(OCC3CCCCC3)c3[nH]cnc3n2)cc1,,"inconclusive: 38.5 µM [inhibitor, single point]"
O=c1cc(N2CCN(c3ccccc3)CC2)[nH]c(=O)n1Cc1ccc(F)cc1,inactive: 18.4%,
Cc1cc(O)c2c(c1)C(=O)c1cc(O)cc(O)c1C2=O,,"inconclusive: 34.3 µM [inhibitor, partial curve, poor fit] and inconclusive: 35.5 µM [inhibitor, partial curve, poor fit]"
CCOc1ccccc1CN1CCN(S(=O)(=O)c2ccccc2)CC1,inactive: 4.75%,
O=C(O)c1ccc(CNC(=S)Nc2ccccc2)cc1,,"inconclusive: 44.7 µM [inhibitor, partial curve, poor fit]"
CC(=O)c1cccc(NC(=O)c2oc3c(c2C)-c2nn(Cc4ccc(Cl)cc4)cc2CC3)c1,,"inconclusive: 31.6 µM [inhibitor, partial curve, poor fit]"
